No constants are given. Whether binding was seen depends on the method and setting. In cells and extracts the contact can be indirect. Some binding calls cover weakened binding; strength is not graded here.
Biological target: p27^Kip1 (endogenous, mink Mv1Lu cells) (mink (endogenous in Mv1Lu)) (UniProt P46529)
Assay: co-IP

The chains behind the UniProt entries cited, without tags or fusion partners. Where a name states a change or a piece, a line headed by the entry shows the natural chain unless it says otherwise.
UniProt P46529, whole entry: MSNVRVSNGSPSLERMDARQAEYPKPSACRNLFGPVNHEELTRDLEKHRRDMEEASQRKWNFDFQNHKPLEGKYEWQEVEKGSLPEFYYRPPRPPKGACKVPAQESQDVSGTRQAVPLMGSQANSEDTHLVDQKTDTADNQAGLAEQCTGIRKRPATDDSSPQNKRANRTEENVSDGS
UniProt Q00534, whole entry: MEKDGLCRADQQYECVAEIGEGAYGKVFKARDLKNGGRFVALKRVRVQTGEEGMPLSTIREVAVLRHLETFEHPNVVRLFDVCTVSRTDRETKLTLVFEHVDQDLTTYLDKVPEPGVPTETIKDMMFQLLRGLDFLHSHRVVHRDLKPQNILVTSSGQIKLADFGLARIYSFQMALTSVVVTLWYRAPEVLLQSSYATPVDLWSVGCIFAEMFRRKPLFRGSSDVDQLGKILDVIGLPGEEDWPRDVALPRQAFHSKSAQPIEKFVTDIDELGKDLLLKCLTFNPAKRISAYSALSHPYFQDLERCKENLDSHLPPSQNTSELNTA

Row | binding | Substance
1 | binds | HA-cdk6^WT (human) (from UniProt Q00534 1-326) (enzyme)
2 | binds | cdk6^D163N/R31C (human) (from UniProt Q00534 1-326) (enzyme)
